# Measured values as given in PubChem BioAssay AID540336 (Broad Institute, 2011).
# Protein sequences, listed by entry. Tags and fused reporters are not part of them.
# UniProt Q5AAJ8, whole entry, looked up: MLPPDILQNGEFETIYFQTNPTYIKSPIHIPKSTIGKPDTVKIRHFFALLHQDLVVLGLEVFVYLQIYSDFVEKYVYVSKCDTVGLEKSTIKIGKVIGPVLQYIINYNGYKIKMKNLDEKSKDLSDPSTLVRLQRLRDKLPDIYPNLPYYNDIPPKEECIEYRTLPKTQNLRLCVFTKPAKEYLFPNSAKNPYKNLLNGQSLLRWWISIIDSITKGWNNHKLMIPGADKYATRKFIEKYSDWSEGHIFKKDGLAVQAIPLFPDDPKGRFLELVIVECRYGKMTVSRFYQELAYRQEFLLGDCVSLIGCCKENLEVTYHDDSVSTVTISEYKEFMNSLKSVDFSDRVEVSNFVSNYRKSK
# The campaign covered roughly 330,000 compounds. About 520 (0.16%) were called active. The inconclusive results got no clear call from the source; some entries with a clear call stand among them for comparison.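 How the source made its calls: active means inhibition of at least 50% in every replicate; inconclusive means best replicate reaches 50% inhibition but some replicates fall short; inactive means the rest.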
# Target: Histone acetyltransferase RTT109 (Candida albicans (strain SC5314 / ATCC MYA-2876)) (UniProt Q5AAJ8)
# Assay: Rtt109-Vps75 histone acetyltransferase blockade – biochemical, ThioGlo CoA-SH fluorescence, plate reader, primary screen (AID 540336)
# Details: purified Rtt109/Vps75, ThioGlo CoA-SH fluorescence, 4 h; at 34.9 µM; hits give high values
row,Structure (SMILES),inhibition
1,CC1Sc2ccccc2N(CC(=O)N(C(C)C)C(C)C)C1=O (stereo not given),active: 51%
2,Oc1sc(C=Nc2ccccc2)c2ccccc12,inconclusive: 85.1%
3,CCn1c(C)nc2cc(C(=O)OC(C(F)(F)C(F)F)C(F)(F)C(F)F)ccc21,inconclusive: 57.9%
4,CCOc1ccc2[nH]c3c(=O)n(CCC4=CCCCC4)cnc3c2c1,inactive: 1.18%
5,C=C(C)CSc1nc2sc3c(c2c(=O)n1C1CCCCC1)CCN(C)C3,inconclusive: 40%
6,COC(=O)C1=C(C)NC2=C(C(=O)CCC2)C1c1ccc(-c2ccsc2C(=O)OC)o1 (stereo not given),inconclusive: 25.5%
7,COC(=O)c1ccc(NC(=S)NC(=O)c2c(-c3ccccc3)noc2C)cc1,inactive: -14.5%
8,COc1cccc(C2C(C(=O)c3cc4ccccc4o3)=C(O)C(=O)N2c2cc(C)on2)c1OC (stereo not given),inconclusive: 50.4%
9,Cc1cc(OCc2ccc(C(=O)NN=C3CCCC3)cc2)ccc1Cl,active: 55.7%
10,CC1CCC(NC(=O)CCNS(=O)(=O)c2ccc3c(c2)CCC(=O)N3)CC1 (stereo not given),inconclusive: 97%
11,Cc1ccc(S(=O)(=O)NCCc2nnc3ccc(SCC(=O)Nc4nc(C)cs4)nn23)cc1,inconclusive: 32.7%
12,CC(O)CNCc1ccccc1C(F)(F)F (stereo not given),inactive: 0.122%
13,O=C(CCCN1C(=O)/C(=C/c2cccs2)SC1=S)Nc1ccccc1O,inactive: 1.89%
14,N=c1oc2cc(O)ccc2cc1C(=O)Nc1ccc(Cl)cc1,inactive: -119%
15,Nc1nc(Cl)cc(NCCc2ccc(O)cc2)n1,inconclusive: 31%
16,O=S(=O)(NN1CCOCC1)c1ccc(Br)cc1,active: 52.5%
17,CCN(CCCNC(=O)C1CCCN(S(=O)(=O)CC)C1)c1cccc(C)c1 (stereo not given),inactive: 10.8%
18,COc1cc(NC(=S)NCc2cccnc2)c(OC)cc1Cl,active: 56.3%
19,Cc1cccc(NC(=O)COC(=O)c2ccc(S(=O)(=O)N3CCCC3)cc2)c1,inactive: -3.95%
20,O=C(COC(=O)/C=C/c1ccc(F)cc1)Nc1cccc(S(=O)(=O)N2CCCC2)c1,inconclusive: 30.5%
21,CCc1ccccc1NC(=O)CSc1nc2[nH]c(=O)cc(O)c2s1,inconclusive: 38.8%
22,CCN1CCCC1CNC(=O)c1cc2c(=O)n(C)c3ccccc3c2n1C (stereo not given),inconclusive: 17.9%
23,O=C(CCSCc1ccc(Cl)cc1)NCc1cccnc1,inactive: -2.4%
24,COc1ccccc1NS(=O)(=O)c1cccc(NC(=O)CCNC(=O)c2ccccc2OC)c1,inconclusive: 20.4%
25,C#CCOCCOCCOCCNc1nc(N2CCOCC2)nc(N2CCN(C(=O)CCCCCCCCCCNC(=O)[C@H]([C@@H](C)CC)n3cc(CCCCN=C(N)N)nn3)CC2)n1,inconclusive: 33.3%
26,CC(C)(C)NC(=O)COC(=O)c1ccc(NC(=O)CC#N)cc1,inconclusive: 36.8%
27,COc1ccc(/C=N/NC(=O)COc2ccc(Cl)cc2Cl)cc1Cn1nc(C)cc1C,active: 54%
28,O=C(c1ccc2c(c1)CCN2S(=O)(=O)c1ccccc1)N1CCN(c2ccc(F)cc2)CC1,inactive: -4.32%

# Pulled by structure from above (two):
row,Structure (SMILES),inhibition
9,Cc1cc(OCc2ccc(C(=O)NN=C3CCCC3)cc2)ccc1Cl,active: 55.7%
4,CCOc1ccc2[nH]c3c(=O)n(CCC4=CCCCC4)cnc3c2c1,inactive: 1.18%

# Next part:

row,Structure (SMILES),inhibition
1,COc1ccc(OC2CCN(C(=O)Nc3ccc(C)cc3)CC2)cc1,inconclusive: 29.7%
2,Cc1ccc(N2C(=O)C(Cl)=C(N3CCN(C)CC3)C2=O)c(C)c1,inconclusive: 35.3%
3,C=CCN1C(=O)N/C(=C/c2ccccc2OCC(=O)Nc2ccc(F)cc2)C1=O,inconclusive: 24.9%
4,Cc1ccc(N2C(=O)C(c3c(C)[nH]n(-c4ccccc4)c3=O)(C(F)(F)F)C3=C2CC(C)(C)CC3=O)cc1 (stereo not given),inconclusive: 56.1%
5,Cc1ccc2nc(N3C(=O)C(O)=C(C(=O)c4ccco4)C3c3cccc(O)c3)sc2c1 (stereo not given),inconclusive: 41%
6,COC(=O)c1cccc(Oc2cccc(Cl)n2)c1,active: 53.6%
7,Cc1[nH][nH]c(=O)c1C(c1ccc(-c2cccc(C(=O)O)c2)o1)c1c(C)[nH][nH]c1=O,inconclusive: 49.5%
8,Cc1ccc(NC(=O)Nc2cnccn2)cc1Cl,inconclusive: 23.4%
9,Cc1nn2c(c1-c1ccc(Cl)cc1)N=C(c1ccco1)CC2c1ccccc1 (stereo not given),inconclusive: 34.4%
10,COc1ccc2cc(C(N)=O)/c(=N\NC(=O)c3ccccc3)oc2c1,inconclusive: 23.2%
11,COc1ccc(CNC(=O)CCc2c(C)nc3cc(-c4ccccc4OC)nn3c2C)cc1,inconclusive: 25%
12,COc1ccccc1N1C(=NC(=O)CCC2CCCC2)SC2CS(=O)(=O)CC21 (stereo not given),inconclusive: 23.5%
13,O=C(COc1cccnc1[N+](=O)[O-])Nc1ccccc1Sc1ccccc1,inactive: 1.45%
14,O=[N+]([O-])c1cc(/C=N/O)ccc1Sc1ccccc1,inconclusive: 22.7%
15,COCCN1CCN(C(=O)C2CCC(=O)N(Cc3ccccc3OC)C2)CC1 (stereo not given),inconclusive: 30%
16,COc1ccc(C(=O)NNC(=S)NC(=O)c2cccc([N+](=O)[O-])c2)cc1,inconclusive: 29.5%
17,Cc1ccc(-c2n[nH]c(=O)c3ccccc23)c(C)c1,inactive: -5.51%
18,COc1ccc(CN(C)C(=O)CCN=C2NS(=O)(=O)c3ccccc32)c(OC)c1,inactive: 1.85%
19,CC(=O)NCc1ccc(S(=O)(=O)N2CCN(S(=O)(=O)c3ccc4ccccc4c3)CC2)cc1,inactive: -2.98%
20,O=C(Nc1ccc(F)cc1)C(Sc1nc2ccccc2[nH]1)c1ccccc1 (stereo not given),inconclusive: 31.2%
21,O=C(NCc1cccc(Cl)c1)c1ccc(CS(=O)Cc2ccccc2Cl)o1 (stereo not given),inconclusive: 29%
22,COC(=O)c1cc(C(=O)OC)cc(N2C(=O)CC(Sc3nc(C)cc(C)n3)C2=O)c1 (stereo not given),inactive: -0.989%
23,Cc1ccc(S(=O)(=O)N(CC(=O)N/N=C/c2ccccc2C(=O)O)c2cc(Cl)cc(Cl)c2)cc1,inconclusive: 34.7%
24,CC(=O)c1cccc(NC(=S)NC(=O)CC(C)C)c1,inconclusive: 29.4%
25,CCOC(=O)C1=CN(CC2CCCCC2)CCC1=O,inactive: 2.94%
26,Cn1ccsc1=NC(=O)c1ccc(Cl)c([N+](=O)[O-])c1,inactive: 4.74%
27,C[C@H](NC(=O)C1CCN(S(=O)(=O)c2ccccc2)CC1)C(=O)NCc1ccc(Cl)cc1Cl,inconclusive: 48.2%
